Residue numbers refer to the chain shown, from its start. No constants are given. Whether binding was seen depends on the method and setting. In cells and extracts the contact can be indirect. Some entries that bind do so weakly or less than the wild type. Tags and fused reporters may be left off the sequences shown. Values belong to the binder of their own block, whether it stands above or below them.
Assays:
[1] = target: T1, GEF-H1 (S324A) variant (human) (UniProt Q92974); test: co-IP; HEK293T cells transfected with the indicated plasmids (GEF-H1 WT or variants with IRF5, IKKε, IKKβ; with or without RIPK2 or NOD2); precipitated with anti-GEF-H1, protein G agarose; lysis buffer 1% NP-40, 20 mM Tris-HCl pH 7.4, 150 mM NaCl; partners detected by western blot
T1 sequence: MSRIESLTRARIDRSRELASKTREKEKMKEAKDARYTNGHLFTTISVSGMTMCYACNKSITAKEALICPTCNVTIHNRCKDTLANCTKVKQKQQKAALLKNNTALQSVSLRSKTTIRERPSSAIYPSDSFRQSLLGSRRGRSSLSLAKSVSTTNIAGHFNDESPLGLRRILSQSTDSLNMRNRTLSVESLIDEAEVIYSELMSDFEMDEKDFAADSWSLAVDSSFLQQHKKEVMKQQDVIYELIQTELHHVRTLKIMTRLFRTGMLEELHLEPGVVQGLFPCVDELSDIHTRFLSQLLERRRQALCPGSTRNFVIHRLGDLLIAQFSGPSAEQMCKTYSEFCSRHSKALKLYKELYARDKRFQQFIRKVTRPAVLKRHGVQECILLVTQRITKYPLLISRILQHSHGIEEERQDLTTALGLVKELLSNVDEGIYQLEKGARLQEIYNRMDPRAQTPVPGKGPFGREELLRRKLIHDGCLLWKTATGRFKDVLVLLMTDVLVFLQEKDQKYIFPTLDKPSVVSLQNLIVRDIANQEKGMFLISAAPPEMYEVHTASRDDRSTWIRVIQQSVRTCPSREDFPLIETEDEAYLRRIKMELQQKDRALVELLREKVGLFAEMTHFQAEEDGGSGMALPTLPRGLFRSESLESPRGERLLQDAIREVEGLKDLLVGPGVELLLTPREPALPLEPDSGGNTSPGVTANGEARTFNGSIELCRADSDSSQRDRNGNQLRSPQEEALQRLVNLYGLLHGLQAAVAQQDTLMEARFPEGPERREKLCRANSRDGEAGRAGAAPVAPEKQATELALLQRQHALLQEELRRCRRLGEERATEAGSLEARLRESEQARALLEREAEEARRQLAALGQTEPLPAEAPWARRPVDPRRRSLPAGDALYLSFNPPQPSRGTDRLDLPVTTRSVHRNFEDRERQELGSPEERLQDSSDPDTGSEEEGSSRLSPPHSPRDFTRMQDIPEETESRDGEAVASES

[2] = target: T2, GEF-H1 (S399A) variant, hyper-phosphorylated at S886 (human) (UniProt Q92974); test: as above
T2 sequence (chain, significantly elevated phosphorylation at S886 (detected by a specific antibody)): T1 sequence with A324S, S399A

binding [1]: binds | binding [2]: no binding
B1: human IKKε (pcDNA3-huIKKε-flag) (enzyme, UniProt Q14164 1-716)
chain: MQSTANYLWHTDDLLGQGATASVYKARNKKSGELVAVKVFNTTSYLRPREVQVREFEVLRKLNHQNIVKLFAVEETGGSRQKVLVMEYCSSGSLLSVLESPENAFGLPEDEFLVVLRCVVAGMNHLRENGIVHRDIKPGNIMRLVGEEGQSIYKLTDFGAARELDDDEKFVSVYGTEEYLHPDMYERAVLRKPQQKAFGVTVDLWSIGVTLYHAATGSLPFIPFGGPRRNKEIMYRITTEKPAGAIAGAQRRENGPLEWSYTLPITCQLSLGLQSQLVPILANILEVEQAKCWGFDQFFAETSDILQRVVVHVFSLSQAVLHHIYIHAHNTIAIFQEAVHKQTSVAPRHQEYLFEGHLCVLEPSVSAQHIAHTTASSPLTLFSTAIPKGLAFRDPALDVPKFVPKVDLQADYNTAKGVLGAGYQALRLARALLDGQELMFRGLHWVMEVLQATCRRTLEVARTSLLYLSSSLGTERFSSVAGTPEIQELKAAAELRSRLRTLAEVLSRCSQNITETQESLSSLNRELVKSRDQVHEDRSIQQIQCCLDKMNFIYKQFKKSRMRPGLGYNEEQIHKLDKVNFSHLAKRLLQVFQEECVQKYQASLVTHGKRMRVVHETRNHLRLVGCSVAACNTEAQGVQESLSKLLEELSHQLLQDRAKGAQASPPPIAPYPSPTRKDLLLHMQELCEGMKLLASDLLDNNRIIERLNRVPAPPDV

binding [1]: binds | binding [2]: binds
B2: human IKKβ (pcDNA3.1-huIKKβ-HA) (enzyme, UniProt O14920 1-756)
chain: MSWSPSLTTQTCGAWEMKERLGTGGFGNVIRWHNQETGEQIAIKQCRQELSPRNRERWCLEIQIMRRLTHPNVVAARDVPEGMQNLAPNDLPLLAMEYCQGGDLRKYLNQFENCCGLREGAILTLLSDIASALRYLHENRIIHRDLKPENIVLQQGEQRLIHKIIDLGYAKELDQGSLCTSFVGTLQYLAPELLEQQKYTVTVDYWSFGTLAFECITGFRPFLPNWQPVQWHSKVRQKSEVDIVVSEDLNGTVKFSSSLPYPNNLNSVLAERLEKWLQLMLMWHPRQRGTDPTYGPNGCFKALDDILNLKLVHILNMVTGTIHTYPVTEDESLQSLKARIQQDTGIPEEDQELLQEAGLALIPDKPATQCISDGKLNEGHTLDMDLVFLFDNSKITYETQISPRPQPESVSCILQEPKRNLAFFQLRKVWGQVWHSIQTLKEDCNRLQQGQRAAMMNLLRNNSCLSKMKNSMASMSQQLKAKLDFFKTSIQIDLEKYSEQTEFGITSDKLLLAWREMEQAVELCGRENEVKLLVERMMALQTDIVDLQRSPMGRKQGGTLDDLEEQARELYRRLREKPRDQRTEGDSQEMVRLLLQAIQSFEKKVRVIYTQLSKTVVCKQKALELLPKVEEVVSLMNEDEKTVVRLQEKRQKELWNLLKIACSKVRGPVSGSPDSMNASRLSQPGQLMSQPSTASNSLPEPAKKSEELVAEAHNLCTLLENAIQDTVREQDQSFTALDWSWLQTEEEEHSCLEQAS
